Source: patent US20240124563A1
These are yes or no findings as the source states them, for the method shown. Binding can be weak; no strength is given.

Protein sequences, listed by entry. Tags and fused reporters are not part of them. Lines headed by an entry give the natural chain unless they say otherwise; changes in a name come on top.
UniProt Q13421: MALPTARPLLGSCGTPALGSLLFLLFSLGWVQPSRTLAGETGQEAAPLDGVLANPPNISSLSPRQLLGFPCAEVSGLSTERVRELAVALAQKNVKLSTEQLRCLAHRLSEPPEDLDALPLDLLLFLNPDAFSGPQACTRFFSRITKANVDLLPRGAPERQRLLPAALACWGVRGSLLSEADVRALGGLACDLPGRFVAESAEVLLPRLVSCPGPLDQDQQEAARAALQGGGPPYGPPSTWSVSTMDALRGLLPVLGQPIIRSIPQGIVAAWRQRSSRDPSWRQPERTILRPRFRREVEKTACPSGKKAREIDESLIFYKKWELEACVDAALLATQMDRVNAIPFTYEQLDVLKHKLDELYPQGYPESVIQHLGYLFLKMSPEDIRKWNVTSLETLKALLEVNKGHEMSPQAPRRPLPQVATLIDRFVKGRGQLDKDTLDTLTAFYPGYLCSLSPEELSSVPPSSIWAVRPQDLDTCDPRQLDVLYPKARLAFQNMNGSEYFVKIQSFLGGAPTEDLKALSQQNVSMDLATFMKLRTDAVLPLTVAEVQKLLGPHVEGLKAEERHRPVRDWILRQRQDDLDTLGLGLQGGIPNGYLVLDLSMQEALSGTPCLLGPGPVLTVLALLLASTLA

Molecular target: human MSLN protein endogenously expressed on tumor cells (Hela, OVCAR3) (human) (UniProt Q13421)
Test: FACS, OVCAR3 cells

binding: binds
B1: Tab107 (YP3, hIgG1) (antibody, V domains shown)
VH: QEQLVESGGGLVQPGASLTLTCTASGIDFSRYYMCWVRQAPGKGLEGIACIYIGGSGSTYYASWAKGRFTISKASSTTVTLQMTSLTAADTATYFCARGTNLNYIFRLWGPGTLVTVSS
VL: DVVMTQTPSPVSAAVGGTVTIKCQASQSINNGLAWYQQKPGQPPRLLIYSASNLESGVPSRFKGSGSGTEFTLTISDLECDDAATYYCQCIWDGNSYVNAFGGGTEVVVRT
